Test [1] has as its target DNA topoisomerase II beta (TOP2β), endogenous (human (endogenous in HEK293T)) (UniProt Q02880). Kind of test: co-IP; lysates of HEK293T cells transfected with FLAG-BPLF1 or FLAG-BPLF1^C61A, untreated or treated with 40 μM Etoposide for 30 min; immunoprecipitated with anti-TOP2α or anti-TOP2β antibodies 3 h at 4°C, captured on protein-G beads; western blot for FLAG. Background: Immunoblotting shows a protein as a band on a membrane.

The target in test [2] is DNA topoisomerase II alpha (TOP2α), endogenous (human (endogenous in HEK293T)) (UniProt P11388). The description is as above.
Test [3] has as its target 3xFLAG-BPLF1 (amino acid 1–235), N-terminal catalytic domain of the EBV large tegument protein BPLF1 (Epstein-Barr virus) (UniProt P03186). The test is described as follows: co-IP; lysates of HEK293T cells transfected with FLAG-BPLF1 or FLAG-BPLF1^C61A, untreated or treated with 40 μM Etoposide for 30 min; NP40 lysis buffer; immunoprecipitated with anti-FLAG agarose 3 h at 4°C, eluted with FLAG peptide; western blot for TOP2α, TOP2β, TOP1.

No constants are given. Whether binding was seen depends on the method and setting. In cells and extracts the contact can be indirect. Some results given as binding are weak or reduced against the parent protein; the word gives no strength.

“3xFLAG-BPLF1 (amino acid 1–235), N-terminal catalytic domain of the EBV large tegument protein BPLF1 (from UniProt P03186 1-235) (enzyme)”: the binding entry in test [1] and in test [2] was “binds” in each case.

For the substance “DNA topoisomerase I (TOP1), endogenous (from UniProt P11387 1-765) (enzyme)”, the binding entry in test [3] was “no binding”.

As for “DNA topoisomerase II beta (TOP2β), endogenous (from UniProt Q02880 1-1626) (enzyme)”, the binding result in test [3] is recorded as “binds”.

(Values after publication PMC8483405.)
